pIC50: −log10 of the molar value. Some entries share one result that the patent states for a list of compounds. At least one compound was matched to its structure with a doubt left.
Molecular target: T1, CCR2 receptor (Homo sapiens, UniProt P41597)
T1 construct: endogenous in cells; host or cells: THP-1 (human monocytic cell line)
T1 sequence (P41597 1-360 isoform P41597-2): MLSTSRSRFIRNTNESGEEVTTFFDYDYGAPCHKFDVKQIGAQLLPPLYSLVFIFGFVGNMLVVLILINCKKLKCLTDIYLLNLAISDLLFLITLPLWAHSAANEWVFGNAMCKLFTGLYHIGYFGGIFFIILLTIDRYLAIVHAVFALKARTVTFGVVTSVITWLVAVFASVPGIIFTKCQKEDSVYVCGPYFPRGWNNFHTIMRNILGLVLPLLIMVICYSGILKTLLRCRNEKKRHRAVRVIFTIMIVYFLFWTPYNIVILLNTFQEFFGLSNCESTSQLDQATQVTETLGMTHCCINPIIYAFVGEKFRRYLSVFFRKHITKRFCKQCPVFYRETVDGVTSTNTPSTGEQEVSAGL
Test: Binding assay: inhibition of 125I-MCP-1 binding to THP-1 cells
Conditions: human monocytic cell line THP-1; 0.1 nM 125I-MCP-1; 1 hr at room temperature

## CC(=O)C1=C(O)C(=O)N(c2ccc(Cl)cc2F)C1C12CC3CC(CC1C3)C2 (stereo not shown) [Compound 151, 4-acetyl-1-(4-chloro-2-fluorophenyl)-3-hydroxy-5-(3-noradamantyl)-1,5-dihydro-2H-pyrrol-2-one]
  pIC50: ≥ 5.30

Source: US20050004180A1, “Pyrrolidinone derivatives” (priority 2001, published 2005)
